Data on 14 molecules can be found in PubChem BioAssay AID256 (DTP/NCI, 2004).

SMILES strings stand for the structures. The list is a part of this screen's results and no random one: it gathers tests that were run many times, whatever their T/C, doses with no T/C, and many T/C values between a quarter and a half above the control. Further doses and runs are listed elsewhere. T/C gives the treated animals as a percentage of the vehicle group. Some doses have a count of surviving animals in place of a T/C: the source files T/C as zero there, which appears to mark a toxic dose or a test without result, not a measured value. Some doses without a T/C left all or most animals alive at the check, yet need not have been tolerated: the source hardly ever lists a survival T/C far under the control, and the zero likely stands for such cases as well. Survivors were counted at the toxicity check, usually on the fifth day, unless a day is given; later deaths do not show. Schedules are NCI's codes, read here as Q, the interval in days (D) or hours (H), X, the number of doses. Where survival is the endpoint, this PubChem deposit counts one and a half times the control or more as active, and values a quarter to a half above the control carry no call in these data; other NCI protocols may use other cut-offs. Some T/C values are followed by the survivors on the day toxicity was checked, most often the fifth; without a count, all were alive then.

The test system of the assay is CD2F1 mice, L1210 leukemia ip, survival T/C. The assay is described as follows: NCI In Vivo Anticancer Drug Screen. Data for tumor model L1210 Leukemia (intraperitoneal) in CD2F1 (CDF1) mice. Conditions: higher T/C = longer survival. In outline:
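Antitumor effect is scored in animals hosting a serially transplanted tumor. Values compare compound-dosed animals against vehicle-only controls as a simple quotient.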

Where [1] appears, read: T/C endpoint: mean survival time, dose: 400.0 mg/kg/injection, schedule: Q01DX009 (ip), vehicle: saline with Tween-80.
[2] abbreviates: T/C endpoint: median survival time, dose: 100.0 mg/kg/injection, schedule: Q01DX009 (ip), vehicle: saline with Tween-80.
The mark [3] stands for this setting: T/C endpoint: mean survival time, dose: 400.0 mg/kg/injection, schedule: Q04DX003 (ip), vehicle: saline with Tween-80.
Where [4] appears, read: T/C endpoint: mean survival time, dose: 200.0 mg/kg/injection, schedule: Q04DX002 (ip), vehicle: saline with Tween-80.
Where [5] appears, read: T/C endpoint: mean survival time, dose: 400.0 mg/kg/injection, schedule: Q04DX002 (ip), vehicle: saline with Tween-80.

With `O=C1NC(=O)C2C3C=CC(C12)C1C2C(=O)NC(=O)C2C31` (centres undefined), the T/C is 132 % of control [9 of 10 alive] (T/C endpoint: mean survival time, dose: 25.0 mg/kg/injection, schedule: Q01DX009 (ip), vehicle: saline with Tween-80); 145 % of control (T/C endpoint: median survival time, dose: 5.2 mg/kg/injection, schedule: Q03HX024 (ip), vehicle: clinical formulation); 127 % of control (T/C endpoint: median survival time, dose: 6.25 mg/kg/injection, schedule: Q01DX009 (ip), vehicle: saline with Tween-80); 141 % of control (T/C endpoint: median survival time, dose: 10.0 mg/kg/injection, schedule: Q03HX027 (ip), vehicle: saline); 136 % of control (T/C endpoint: median survival time, dose: 25.0 mg/kg/injection, schedule: Q01DX005 (iv), vehicle: clinical formulation); 139 % of control (T/C endpoint: median survival time, dose: 25.0 mg/kg/injection, schedule: Q01DX009 (ip), vehicle: saline with Tween-80). The T/C by setting is: (T/C endpoint: median survival time, dose: 30.0 mg/kg/injection, schedule: Q01DX009 (ip), vehicle: saline) 149 % of control; (T/C endpoint: median survival time, dose: 41.6 mg/kg/injection, schedule: Q04DX003 (ip), vehicle: clinical formulation) 130 % of control; (T/C endpoint: median survival time, dose: 50.0 mg/kg/injection, schedule: Q01DX005 (iv), vehicle: other) 146 % of control; (T/C endpoint: median survival time, dose: 62.5 mg/kg/injection, schedule: Q01DX001 (ip), vehicle: clinical formulation) 139 % of control; under setting [2], 135 % of control; (T/C endpoint: median survival time, dose: 200.0 mg/kg/injection, schedule: Q01DX009 (oral), vehicle: other) 131 % of control. Also, the T/C reads like this: (T/C endpoint: median survival time, dose: 222.2 mg/kg/injection, schedule: Q01DX009 (oral), vehicle: clinical formulation) 134 % of control; (T/C endpoint: median survival time, dose: 400.0 mg/kg/injection, schedule: Q01DX009 (oral), vehicle: other) 132 % of control. Also, the survivor count is, setting by setting: (T/C endpoint: mean survival time, dose: 200.0 mg/kg/injection, schedule: Q01DX009 (ip), vehicle: saline with Tween-80) 9 of 10; under setting [1], 2 of 10; (T/C endpoint: median survival time, dose: 15.6 mg/kg/injection, schedule: Q03HX008 (ip), vehicle: clinical formulation) 5 of 10; (T/C endpoint: median survival time, dose: 31.2 mg/kg/injection, schedule: Q03HX008 (ip), vehicle: clinical formulation) 1 of 10; (T/C endpoint: median survival time, dose: 41.6 mg/kg/injection, schedule: Q03HX024 (ip), vehicle: clinical formulation) 2 of 10; (T/C endpoint: median survival time, dose: 62.5 mg/kg/injection, schedule: Q03HX008 (ip), vehicle: clinical formulation) 0 of 10. Also, the survivor count by setting is: (T/C endpoint: median survival time, dose: 91.4 mg/kg/injection, schedule: Q01DX009 (ip), vehicle: water) 0 of 6; (T/C endpoint: median survival time, dose: 100.0 mg/kg/injection, schedule: Q01DX005 (ip), vehicle: clinical formulation) 3 of 10; (T/C endpoint: median survival time, dose: 100.0 mg/kg/injection, schedule: Q01DX005 (iv), vehicle: clinical formulation) 1 of 10; (T/C endpoint: median survival time, dose: 100.0 mg/kg/injection, schedule: Q01DX009 (ip), vehicle: clinical formulation) 5 of 10; (T/C endpoint: median survival time, dose: 125.0 mg/kg/injection, schedule: Q01DX001 (iv), vehicle: clinical formulation) 1 of 10; (T/C endpoint: median survival time, dose: 125.0 mg/kg/injection, schedule: Q03HX008 (ip), vehicle: clinical formulation) 0 of 10. Further, the survivor count was 0 of 6 (T/C endpoint: median survival time, dose: 138.9 mg/kg/injection, schedule: Q01DX009 (ip), vehicle: clinical formulation); 2 of 6 (T/C endpoint: median survival time, dose: 138.9 mg/kg/injection, schedule: Q01DX009 (ip), vehicle: saline); 1 of 6 (T/C endpoint: median survival time, dose: 138.9 mg/kg/injection, schedule: Q01DX009 (ip), vehicle: water); 0 of 10 (T/C endpoint: median survival time, dose: 166.6 mg/kg/injection, schedule: Q04DX003 (ip), vehicle: clinical formulation); 0 of 10 (T/C endpoint: median survival time, dose: 200.0 mg/kg/injection, schedule: Q01DX005 (ip), vehicle: clinical formulation); 0 of 10 (T/C endpoint: median survival time, dose: 200.0 mg/kg/injection, schedule: Q01DX005 (ip), vehicle: other). Further, the survivor count (T/C endpoint: median survival time, dose: 200.0 mg/kg/injection, schedule: Q01DX005 (iv), vehicle: clinical formulation) is 0 of 10; the survivor count (T/C endpoint: median survival time, dose: 200.0 mg/kg/injection, schedule: Q01DX005 (iv), vehicle: other) is 0 of 10; the survivor count (T/C endpoint: median survival time, dose: 200.0 mg/kg/injection, schedule: Q01DX009 (ip), vehicle: clinical formulation) is 1 of 10; the survivor count (T/C endpoint: median survival time, dose: 200.0 mg/kg/injection, schedule: Q01DX009 (ip), vehicle: saline with Tween-80) was 4 of 10; the survivor count (T/C endpoint: median survival time, dose: 250.0 mg/kg/injection, schedule: Q01DX001 (ip), vehicle: clinical formulation) is 6 of 10; the survivor count (T/C endpoint: median survival time, dose: 250.0 mg/kg/injection, schedule: Q01DX001 (iv), vehicle: clinical formulation) was 0 of 10. Besides, the survivor count runs as follows: (T/C endpoint: median survival time, dose: 333.3 mg/kg/injection, schedule: Q04DX003 (ip), vehicle: clinical formulation) 0 of 10; (T/C endpoint: median survival time, dose: 400.0 mg/kg/injection, schedule: Q01DX005 (iv), vehicle: clinical formulation) 0 of 10; (T/C endpoint: median survival time, dose: 500.0 mg/kg/injection, schedule: Q01DX001 (ip), vehicle: clinical formulation) 0 of 10; (T/C endpoint: median survival time, dose: 500.0 mg/kg/injection, schedule: Q01DX001 (iv), vehicle: clinical formulation) 0 of 10; (T/C endpoint: median survival time, dose: 1000.0 mg/kg/injection, schedule: Q01DX001 (ip), vehicle: clinical formulation) 0 of 10; (T/C endpoint: median survival time, dose: 1000.0 mg/kg/injection, schedule: Q01DX001 (iv), vehicle: clinical formulation) 0 of 10.
Turning to `CCc1cccc([N+](=O)[O-])c1CC`, the survivor count runs as follows: (T/C endpoint: mean survival time, dose: 200.0 mg/kg/injection, schedule: Q04DX003 (ip), vehicle: saline with Tween-80) 6 of 6; under setting [3], 0 of 6.
On to `CN(C)CCC=C1c2ccccc2-c2ccccc21`, for which the survivor count by setting is: (T/C endpoint: mean survival time, dose: 150.0 mg/kg/injection, schedule: Q01DX009 (ip), vehicle: saline) 0 of 6; (T/C endpoint: mean survival time, dose: 225.0 mg/kg/injection, schedule: Q01DX009 (ip), vehicle: saline) 0 of 6; (T/C endpoint: mean survival time, dose: 335.0 mg/kg/injection, schedule: Q01DX009 (ip), vehicle: saline) 0 of 6.
Consider `Clc1ccc(Sc2ccc(Cl)cc2)cc1`, for which the survivor count under setting [3] is reported as 5 of 6.
As to `CC(/C=N\O)=N\O`, under “T/C endpoint: mean survival time, dose: 400.0 mg/kg/injection, schedule: Q01DX001 (ip), vehicle: saline with Tween-80”, the survivor count was 0 of 6.
Consider `COc1ccc(NC(=O)C(Cl)Cl)ccc1=O`, for which the survivor count under setting [1] is reported as 3 of 6.
Take `O=C(Nc1ccc(Cl)cc1)NN1CCCCCC1`: the survivor count (T/C endpoint: mean survival time, dose: 100.0 mg/kg/injection, schedule: Q04DX002 (ip), vehicle: saline with Tween-80) is listed as 2 of 3; the survivor count under setting [4] is 0 of 3; the survivor count under setting [5] is given as 0 of 3.
For `Nc1ccc2c(c1)[nH]c1ccccc12`, under setting [3], the survivor count is listed as 4 of 6.
Turning to `CC(O)C1(O)C(O)CC(OC2c3cc4c(c(O)c3[C@@H]3C[C@@]2(C)OC32C=c3cc[nH]c3=N2)C(=O)c2cccc(O)c2C4=O)OC1C` (some centres undefined), the survivor count under setting [2] is given as 4 of 6.
`COc1ccc(C(Br)C(C)Br)cc1` (centres undefined): the survivor count under setting [3] was 2 of 6.
On to `CCC(=O)Nc1ccccc1OS(=O)(=O)N(C)C`, for which, for the setting “T/C endpoint: mean survival time, dose: 100.0 mg/kg/injection, schedule: Q04DX003 (ip), vehicle: saline with Tween-80”, the survivor count was 6 of 6.
For `CC1=CC(=O)C(CCC#N)C(C)(C)C1` (centres undefined), the survivor count by setting is: under setting [4], 0 of 3; under setting [5], 0 of 3.
As for `Clc1nnc(-c2ccccc2)s1`, under setting [3], the survivor count is given as 2 of 6.
Consider `OCc1cc(Cl)cc(Cl)c1O`, for which the survivor count was 1 of 6 (T/C endpoint: mean survival time, dose: 400.0 mg/kg/injection, schedule: Q01DX009 (ip), vehicle: other) and 3 of 6 (T/C endpoint: mean survival time, dose: 400.0 mg/kg/injection, schedule: Q04DX003 (ip), vehicle: other).
